Laboratory results: PubChem BioAssay AID1671190 (National Center for Advancing Translational Sciences (NCATS), 2021)
Several values for one entry are separate records, joined by “and”; a condition that tells them apart may be missing. Equal entries are not always repeated. The whole screen tested about 580,000 compounds, of which about 6,100 (1.1%) were called active. Inconclusive means that the source gave no clear call. Such entries were picked first, then a sample of the others. Calls come from the whole dose curve; as a rule, active = well fitted inhibition curve with a large enough effect; inconclusive = small, poorly fitted or top-dose-only effect, or another doubt; inactive = no such curve, though single readings can be large or run the other way. A potency beside an inconclusive call is a rough fit, not a confirmed value.

Amino acid sequences for entries named in this document (tags omitted). A change or cut given only in a name is not applied to a line headed by its entry.
UniProt P18054: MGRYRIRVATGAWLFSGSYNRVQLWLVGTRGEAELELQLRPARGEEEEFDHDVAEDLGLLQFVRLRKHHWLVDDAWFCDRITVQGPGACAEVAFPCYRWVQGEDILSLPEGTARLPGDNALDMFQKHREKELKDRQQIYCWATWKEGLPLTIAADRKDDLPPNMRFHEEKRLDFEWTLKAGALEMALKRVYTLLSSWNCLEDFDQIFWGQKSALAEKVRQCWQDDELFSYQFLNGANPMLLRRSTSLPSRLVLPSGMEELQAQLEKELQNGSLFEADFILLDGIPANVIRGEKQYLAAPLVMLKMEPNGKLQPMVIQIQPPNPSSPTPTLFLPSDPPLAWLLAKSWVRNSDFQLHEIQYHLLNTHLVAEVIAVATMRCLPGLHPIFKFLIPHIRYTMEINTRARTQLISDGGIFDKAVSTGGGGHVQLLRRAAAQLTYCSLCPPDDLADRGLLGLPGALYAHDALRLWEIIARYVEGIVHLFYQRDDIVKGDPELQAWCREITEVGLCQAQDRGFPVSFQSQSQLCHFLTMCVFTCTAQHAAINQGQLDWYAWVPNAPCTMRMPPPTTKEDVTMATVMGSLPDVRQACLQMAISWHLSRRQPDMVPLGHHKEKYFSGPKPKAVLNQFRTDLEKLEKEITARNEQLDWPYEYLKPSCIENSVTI

What follows are compounds tested against Polyunsaturated fatty acid lipoxygenase ALOX12 (Homo sapiens) (UniProt P18054) (assay: Primary qHTS assay for inhibitors of human arachidonate 12S-lipoxygenase (ALOX12): Round 2). Conditions: purified 12hLO, xylenol orange hydroperoxide absorbance; series mostly up to 108 µM.
Method in brief: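 Purified human 12hLO at 150 nM in 25 mM Hepes, 0.01% Triton X-100, pH 7.0, preincubated 15 min at room temperature with compound. Reaction started with 40 uM arachidonic acid, 30 min at room temperature. Hydroperoxide measured by Fe-xylenol orange, 573/405 nm absorbance ratio.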
Potency is the fitted concentration of half-maximal effect.

Row | Compound | Potency
1 | Oc1ccc(/C=C/c2nc3ccccc3s2)cc1 | inconclusive: 79.4 µM [inhibitor, partial curve, poor fit]
2 | Cc1cc2ncc(C(=O)NCCc3ccc(Cl)cc3)cn2n1 | inactive
3 | COc1cc(/C=N/NC(=O)c2nnn(-c3nonc3N)c2C)ccc1OCc1ccc(Cl)cc1 | inconclusive: 100 µM [inhibitor, single point]
4 | Cc1cccc(CNc2cc(-c3ccccc3C)ncn2)c1 | inconclusive: 50.1 µM [inhibitor, partial curve, poor fit]
5 | Cc1ccc(-c2csc(CC(N)=O)n2)cc1 | inactive
6 | O=C(CCCN1C(=O)/C(=C/c2ccco2)SC1=S)Nc1ccccc1 | inconclusive: 50.1 µM [inhibitor, partial curve]
7 | O=C(COc1ccc(Br)cc1Cl)NC1CCCCC1 | inactive
8 | CC1(C)CC(=O)c2c(oc3ccc(NS(=O)(=O)c4ccc(C(=O)O)cc4)cc23)C1 | inconclusive: 56.2 µM [inhibitor, partial curve, poor fit]
9 | COC(=O)c1ccc(C[N+]2(C)CCCCC2)cc1 | inconclusive: 56.2 µM [inhibitor, partial curve, poor fit]
10 | COc1cc2c(C(=O)N3CCOCC3)c(CSc3ccccc3)n(C)c2cc1Br | inactive
11 | Cc1c(/C(O)=C2/C(=O)C(=O)N(CCN(C)C)C2c2ccc(C(C)C)cc2)cnn1-c1ccccc1 (configuration not stated) | inconclusive: 79.4 µM [inhibitor, partial curve, poor fit]
12 | COc1ccc(-c2cc(=O)c3c(OC)c(OC)c(OC)c(OC)c3o2)cc1OC | inconclusive: 44.7 µM [inhibitor, partial curve]
13 | N#Cc1ccc(NC(=O)Nc2ccc(Oc3ccc(NC(=O)Nc4ccc(C#N)cc4)cc3)cc2)cc1 | inconclusive: 112 µM [inhibitor, single point]
14 | COC(=O)CC1=C(C(=O)OC)C(c2ccncc2)C(C#N)=C(N)O1 (configuration not stated) | inconclusive: 44.7 µM [inhibitor, single point]
15 | CCOc1ccc(-c2ncncc2-c2ccccc2OC)c(O)c1 | inconclusive: 25.1 µM [inhibitor, partial curve, poor fit]
16 | CCOc1ccc(-n2c(SCc3ccc([N+](=O)[O-])cc3)nnc2-c2ccccc2)cc1 | inactive
17 | CC(=O)Nc1ccc(Sc2ncccn2)cc1 | inactive
18 | CCN(CC)Cc1ccc(CNC(=O)c2cnn(-c3ccccc3)c2)cc1 | inactive
19 | Cc1ccc([C@H]2C(C(=O)O)=CC[C@@H](c3ccc(C)cc3)N2S(=O)(=O)c2ccccc2C)cc1 | inconclusive: 44.7 µM [inhibitor, partial curve, poor fit]
20 | COc1ccnc(CN(C)C(=O)C2CCC(=O)N(Cc3cccc(C(F)(F)F)c3)C2)c1 (configuration not stated) | inactive
21 | CN(C(=O)c1ccccn1)c1nnc(-c2cccnc2)s1 | inconclusive: 10 µM [inhibitor, partial curve, poor fit]
22 | CN1CCCN(C(=O)c2cc(F)cc(F)c2)c2ccccc21 | inconclusive: 79.4 µM [inhibitor, partial curve]
23 | O=C1N[C@@H]2CCN(C(=O)c3ccc(C(F)(F)F)cc3)[C@@H]2C(=O)N1c1ccc(Oc2ccccc2)cc1 | inconclusive: 15.8 µM [inhibitor, full curve]

Of the compounds above, these have bromine:
Row | Compound | Potency
7 | O=C(COc1ccc(Br)cc1Cl)NC1CCCCC1 | inactive
10 | COc1cc2c(C(=O)N3CCOCC3)c(CSc3ccccc3)n(C)c2cc1Br | inactive

Next part:

Row | Compound | Potency
24 | CCOc1cccc(/C=C2/Cc3c(O)cccc3C2=O)c1 | inconclusive: 22.4 µM [inhibitor, partial curve, poor fit]
25 | CC(=O)N1c2ccc(S(=O)(=O)NCC3CCC(C(=O)N(C)Cc4ccccc4)CC3)cc2CC1C (configuration not stated) | inactive
26 | Cc1cccc(NC(=O)CSCC(=O)Nc2cccc(S(=O)(=O)N3CCCCCC3)c2)c1 | inconclusive: 44.7 µM [inhibitor, partial curve, poor fit]
27 | CCCc1nc(SCC(=O)N2CCC(C)CC2)c2c(=O)n(C)c(=O)n(C)c2n1 | inactive
28 | N#Cc1ccc(/C=C/C(=O)N(CCc2ccccc2)Cc2cccs2)cc1 | inconclusive: 31.6 µM [inhibitor, single point]
29 | CCCc1nc(C#N)c(NCCc2ccc(OC)c(OC)c2)o1 | inactive
30 | Cc1ccc(C(=O)NCCc2cccs2)cc1 | inactive
31 | Cc1noc(C)c1C(=O)N1CCC[C@@]2(CCN(C(=O)Nc3ccccc3)C2)C1 | inconclusive: 28.2 µM [inhibitor, partial curve, poor fit]
32 | Cc1ccc(C2C3=C(CC(C)(C)CC3=O)NC3=C2C(=O)c2ccccc23)cc1 (configuration not stated) | inconclusive: 50.1 µM [inhibitor, partial curve, poor fit] and inconclusive: 39.8 µM [inhibitor, partial curve, poor fit]
33 | CCOc1ccc(CNC(=O)C2CCN(S(=O)(=O)c3ccc4c(ccn4C)c3)CC2)cc1 | inconclusive: 63.1 µM [inhibitor, partial curve, poor fit]
34 | Cc1ccc(NC(=O)c2nc3ccccc3nc2N2CCCC2)cc1 | inactive
35 | O=C(CCc1cccs1)Nc1ccc2c(c1)OCCCO2 | inconclusive: 5.01 µM [inhibitor, full curve, poor fit]
36 | O=C(N/N=C\c1ccc2c(c1)OCO2)c1ccco1 | inconclusive: 0.224 µM [inhibitor, full curve, poor fit]
37 | O=C(c1cccnc1Cl)N1CCOCC1 | inactive
38 | COc1cccc(C(=O)Nc2ccc3oc(-c4cccc(OC)c4)nc3c2)c1 | inactive
39 | CCCCN1CC(Oc2ccccc2C(=O)NC2CC2)C1 | inactive
40 | Cc1ccc(-c2cc(Nc3cccc(C)c3C)nc(C)n2)cc1 | inconclusive: 50.1 µM [inhibitor, partial curve, poor fit]
41 | CC[C@@H]1C(c2cccc(C)c2)=NN(c2ccccc2)[C@H]1C(=O)N1CCOC1=O | inconclusive: 126 µM [inhibitor, single point]
42 | O=C(c1csnn1)N1CCC2(CC1)CCN(c1ncccn1)CC2 | inconclusive: 14.1 µM [inhibitor, single point]
43 | CN1CCC(N2CC[C@H](c3nnc(-c4ccccc4F)o3)C2)CC1 | inactive
44 | O=C(COc1ccc(Cl)cc1Cl)N1CCCN(C(=O)COc2ccc(Cl)cc2Cl)CC1 | inconclusive: 89.1 µM [inhibitor, single point]
45 | CCOC(=O)c1cnc(SCc2nc(-c3ccc(OC)cc3)oc2C)nc1N | inactive
46 | COc1ccc(C(c2cc(C)sc2NC(=O)c2ccco2)N2CCC(C)CC2)cc1OC (configuration not stated) | inconclusive: 17.8 µM [inhibitor, full curve, poor fit]

Row | Compound | Potency
47 | CC(=O)c1ccc(OCc2cn(CC(=O)c3ccc(O)cc3)nn2)cc1 | inconclusive: 2.51 µM [inhibitor, full curve]
48 | CCCn1c(=O)n(CCC(=O)N(C)CC(=O)Nc2ccccc2Cl)c2ccccc21 | inactive
49 | COc1cc(Cn2c3ccc(NC(=O)NCCc4ccccc4)cc3c(=O)n2C)ccc1F | inactive
50 | CCc1ccc(OCC(=O)Nc2cccc3ccc(C)nc23)cc1 | inconclusive: 141 µM [inhibitor, partial curve, poor fit]
51 | COc1ccccc1N1CCN(S(=O)(=O)c2ccc3c(c2)n(C)c(=O)n3C)CC1 | inconclusive: 44.7 µM [inhibitor, partial curve, poor fit]
52 | CC(C)n1nc(C(=O)N[C@@H](Cc2ccccc2)C(=O)O)c2ccccc2c1=O | inconclusive: 39.8 µM [inhibitor, partial curve, poor fit]
53 | CC(C)Cn1c(N)c(C(=O)CSc2nc3ncc(Cl)cc3[nH]2)c(=O)n(C)c1=O | inconclusive: 79.4 µM [inhibitor, partial curve, poor fit]
54 | Cc1c(Cl)cccc1NC(=O)c1cc2sccc2n1Cc1ccc(F)cc1 | inconclusive: 31.6 µM [inhibitor, partial curve, poor fit]
55 | COc1ccc(C(=O)NNC(=S)NC(=O)c2ccc(F)cc2)cc1Br | inconclusive: 50.1 µM [inhibitor, partial curve, poor fit]
56 | O=C(CC1SCCNC1=O)Nc1ccc(Cl)cc1 (configuration not stated) | inconclusive: 0.708 µM [inhibitor, full curve, poor fit]
57 | CCN1CCC(N(Cc2ccc(F)cc2)C(=O)Nc2cccc(C(F)(F)F)c2)CC1 | inconclusive: 50.1 µM [inhibitor, partial curve, poor fit]
58 | CCOc1ccc2c(c1)cc(C(=O)NCc1cccc(OC)c1)n2C | inactive
59 | CCCCNC(=O)c1c(CSc2ccccc2)noc1C(=O)NCc1ccccc1 | inactive
60 | COc1ccc(-n2c(=O)c3c4c(sc3n3c(=S)[nH]nc23)CCC4)cc1 | inconclusive: 44.7 µM [inhibitor, partial curve]
61 | Cc1ccc(-c2cc(C(=O)N3CCCC3)no2)cc1 | inactive
62 | CCc1cc(=O)n(CC(=O)Nc2ccccc2C)c(-n2nc(C)cc2C)n1 | inconclusive: 1.58 µM [inhibitor, full curve, poor fit]
63 | C1CCc2nc3c(nc2C1)CCCC3 | inactive
64 | CCOC(=O)Cn1cc(CN2C(C(=O)OC)CN(Cc3ccc(F)cc3)CCS2(=O)=O)nn1 (configuration not stated) | inconclusive: 12.6 µM [inhibitor, partial curve, poor fit]
65 | CCOc1ccccc1N1CCN(C(=O)Cc2ccc(S(=O)(=O)N3CCOCC3)s2)CC1 | inconclusive: 126 µM [inhibitor, single point]
66 | COc1ccc2c(c1)OC[C@H]1[C@H]2N2C(=O)CN(CC3CCCO3)C(=O)[C@@]2(C)[C@H]1c1ccccc1 (some centres not stated) | inactive
67 | O=[N+]([O-])c1ccc(COc2ccc(Br)cc2CN2CCOCC2)cc1 | inconclusive: 50.1 µM [inhibitor, partial curve, poor fit]

Entries above containing a CF3 group, in the order listed:
Row | Compound | Potency
20 | COc1ccnc(CN(C)C(=O)C2CCC(=O)N(Cc3cccc(C(F)(F)F)c3)C2)c1 (configuration not stated) | inactive
23 | O=C1N[C@@H]2CCN(C(=O)c3ccc(C(F)(F)F)cc3)[C@@H]2C(=O)N1c1ccc(Oc2ccccc2)cc1 | inconclusive: 15.8 µM [inhibitor, full curve]
57 | CCN1CCC(N(Cc2ccc(F)cc2)C(=O)Nc2cccc(C(F)(F)F)c2)CC1 | inconclusive: 50.1 µM [inhibitor, partial curve, poor fit]
